The values below come from paper PMC6529516.

No constants are given. Whether binding was seen depends on the method and setting. Binding seen in cells or lysates may run through a third protein. A result given as binding can be weak or reduced; the word gives no strength.

For the experiment, the target named is Tubulin, endogenous (Drosophila (endogenous in adult fly heads)). Briefly: co-IP; wild type adult fly head lysates; IP with antibodies to the endogenous proteins (anti-Tub, anti-Futsch, anti-Ringer), immunoblot; ringer-/- or futsch-/- lysates as controls.

B1: Ringmaker (Ringer), Drosophila homolog of human TPPP, endogenous (protein, UniProt Q9VV43 1-192)
chain: MSEVAAANGSPSPAPTPEVPATELAQLALEDEPKVSFSDQFKAFSKFGDSKSDGKLITLSQSDKWMKQAKVIDKKITTTDTGIHFKKFKAMKISLSDYNKFLDDLAKTKKVELSEIKQKLASCGAPGVVSVSAGKAAAAVDRLTDTSKYTGSHKERFDASGKGKGIAGRRNVVDGSGYVSGYQHKDTYDNAH
With B1, the binding result is “binds”.
